Results as given in article PMC8891561.
Residue numbers refer to the chain shown, from its start. No constants are given. Whether binding was seen depends on the method and setting. Binding seen in cells or lysates may run through a third protein. For some of these results: Binding calls can cover weak binding; strength is not graded here. For some of these results: Sequences can lack the tags named with a protein.

Assays:
[1] = target: T1, HA-ERp44 (pcDNA3.1-HA-ERp44) (UniProt Q9BS26); assay: co-IP; exogenous; 293T cells co-transfected with VEGFA165 and ERp44 expression vectors; cells exposed to 1.2 mM DSP in PBS 30 min at RT before lysis in NP-40 buffer; anti-HA or anti-myc antibody agarose overnight at 4 C; eluted with 0.2 M glycine pH 2.5; Western blot
T1 sequence: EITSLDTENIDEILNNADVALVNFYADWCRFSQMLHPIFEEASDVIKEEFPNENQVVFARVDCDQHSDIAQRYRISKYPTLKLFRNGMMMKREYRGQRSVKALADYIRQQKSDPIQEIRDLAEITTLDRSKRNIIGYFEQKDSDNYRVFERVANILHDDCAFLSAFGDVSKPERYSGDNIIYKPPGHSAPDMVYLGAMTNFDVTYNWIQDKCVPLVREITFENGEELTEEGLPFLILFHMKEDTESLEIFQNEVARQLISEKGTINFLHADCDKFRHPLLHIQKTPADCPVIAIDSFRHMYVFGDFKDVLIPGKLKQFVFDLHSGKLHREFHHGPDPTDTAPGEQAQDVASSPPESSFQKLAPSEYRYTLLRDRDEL

[2] = target: T2, HA-C29S (pcDNA3.1-HA-C29S, C29S mutant of ERp44) (UniProt Q9BS26); assay: as above
T2 sequence: T1 sequence with C29S

[3] = target: T3, ERp44 (endogenous, mouse heart) (mouse (endogenous in heart tissue)) (UniProt Q9D1Q6); assay: co-IP; endogenous; mouse heart tissue at different stages of development lysed in NP-40 buffer (PBS, 100 mM NaCl, 10 mM NEM, 0.5% NP-40, 10 mM Tris-HCl 7.4); ERp44 antibody 5 h at 4 C, protein-A/G PLUS-agarose; Western blot
T3 sequence: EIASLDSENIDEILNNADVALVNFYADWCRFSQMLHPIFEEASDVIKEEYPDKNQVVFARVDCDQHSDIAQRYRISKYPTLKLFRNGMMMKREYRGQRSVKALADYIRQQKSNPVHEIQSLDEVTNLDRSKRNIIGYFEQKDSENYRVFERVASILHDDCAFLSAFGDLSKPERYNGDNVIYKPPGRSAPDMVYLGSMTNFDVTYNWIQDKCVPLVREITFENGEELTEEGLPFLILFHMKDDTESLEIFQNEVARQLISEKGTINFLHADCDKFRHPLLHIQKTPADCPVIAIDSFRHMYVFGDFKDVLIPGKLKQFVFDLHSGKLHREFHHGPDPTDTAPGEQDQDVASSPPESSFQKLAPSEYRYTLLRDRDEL

Substance: N101Y-myc (pcDNA4-N101Y-myc, N101Y mutant of VEGFA165) (from UniProt P15692-4)
- binding [1]: binds

Substance: VEGFA165-myc (pcDNA4-hVEGFA165-myc) (from UniProt P15692-4)
- binding [2]: no binding
- binding [1]: binds

Substance: VEGFA (endogenous, mouse heart) (from UniProt Q00731-2)
- binding [3]: binds
